Reference: US12496357B2, “Compositions and methods for treating sickle cell disease” (Yale University, priority 2019, dated 2025)

Test system: SCD mutation (β-globin gene), bulk mouse bone marrow cells
Test: SCD gene correction by ddPCR of gDNA, bulk bone marrow cells treated ex vivo
Format: cell-based
Settings: PLGA or PLA-HPG NPs encapsulating sertcPNA 2, with or without inhibitor
Protocol: Bulk mouse bone marrow cells were treated with PLGA NPs encapsulating tcPNA 1A, 2A, 3A and correcting donor DNA molecules.
Bulk bone marrow cells were treated with PLGA NPs encapsulating modified (tc PNA 2A) and unmodified versions (tc PNA 2) of PNA sequence. 72 hours after treatment, gDNA was isolated and analyzed for editing frequencies by ddPCR.
Bulk bone marrow cells were treated with PLGA NPs encapsulating unmodified PNA (tcPNA 2). 72 hours after treatment HSPCs, were isolated from bulk cells via negative and positive selection, and gene editing all three populations was compared.
Bulk bone marrow and HSPCs (lin^−) were treated with tcPNA 2 nanoparticles and combinations of stem cell factor, erythropoietin, and plerixafor. 72 hours after treatment, gDNA was isolated and analyzed for editing frequencies by ddPCR.
Bulk bone marrow cells were treated with tcPNA 2 encapsulated into poly(lactic-co-glycolic acid) (PLGA), or poly(lactic acid)PLA-HPG.
Nanoparticles made from poly(lactic acid) (PLA) conjugated to hyperbranched polyglycerols (HPG), referred to as PLA-HPG, were synthesized using a double emulsion solvent evaporation protocol. Briefly, 50 mg of PLA-HPG was dissolved in 2.4 mL of ethyl acetate and 0.6 mL of DMSO. PNA and donor DNA were heated to 60° C. for 10 minutes, mixed, and immediately added dropwise to the polymer solution under vortex. […]

For `O=C(CCCCCCC(=O)Nc1ccccc1)NO` [Vorinostat, vorinostat], the “effect of HDAC inhibitor on gene editing frequencies” value was “substantially increased gene editing frequencies”.
